The values below are quoted from earlier work in patent US20050129719A1, “Concentrated emulsion formulation for silatecan” (priority 2003, published 2005).

Consider `CC(=O)O[C@H]1C(=O)[C@@]2(C)[C@H]([C@H](OC(=O)c3ccccc3)[C@]3(O)C[C@H](OC(=O)[C@H](O)[C@@H](NC(=O)c4ccccc4)c4ccccc4)C(C)=C1C3(C)C)[C@]1(OC(C)=O)CO[C@@H]1C[C@@H]2O` [Paclitaxel, paclitaxel], for which the solubility in water result was “less than 1 μg/mL”.
